These are yes or no findings as the source states them, for the method shown. Binding seen in cells or lysates may run through a third protein. Some binding calls cover weakened binding; strength is not graded here.
Target: HA-epitope tagged JMJD3 (UniProt O15054)
Experiment: co-IP; anti-HA immunoprecipitation (isotype IgG control) from whole extracts of HEK 293T cells transfected with HA-JMJD3; TNGT buffer, magnetic beads, overnight at 4°C; extracts treated or not with 40 U/ml RNaseH and 25 U/ml DNaseI for 1 h at 37°C; western blot

The chains behind the UniProt entries cited, without tags or fusion partners.
UniProt O15054: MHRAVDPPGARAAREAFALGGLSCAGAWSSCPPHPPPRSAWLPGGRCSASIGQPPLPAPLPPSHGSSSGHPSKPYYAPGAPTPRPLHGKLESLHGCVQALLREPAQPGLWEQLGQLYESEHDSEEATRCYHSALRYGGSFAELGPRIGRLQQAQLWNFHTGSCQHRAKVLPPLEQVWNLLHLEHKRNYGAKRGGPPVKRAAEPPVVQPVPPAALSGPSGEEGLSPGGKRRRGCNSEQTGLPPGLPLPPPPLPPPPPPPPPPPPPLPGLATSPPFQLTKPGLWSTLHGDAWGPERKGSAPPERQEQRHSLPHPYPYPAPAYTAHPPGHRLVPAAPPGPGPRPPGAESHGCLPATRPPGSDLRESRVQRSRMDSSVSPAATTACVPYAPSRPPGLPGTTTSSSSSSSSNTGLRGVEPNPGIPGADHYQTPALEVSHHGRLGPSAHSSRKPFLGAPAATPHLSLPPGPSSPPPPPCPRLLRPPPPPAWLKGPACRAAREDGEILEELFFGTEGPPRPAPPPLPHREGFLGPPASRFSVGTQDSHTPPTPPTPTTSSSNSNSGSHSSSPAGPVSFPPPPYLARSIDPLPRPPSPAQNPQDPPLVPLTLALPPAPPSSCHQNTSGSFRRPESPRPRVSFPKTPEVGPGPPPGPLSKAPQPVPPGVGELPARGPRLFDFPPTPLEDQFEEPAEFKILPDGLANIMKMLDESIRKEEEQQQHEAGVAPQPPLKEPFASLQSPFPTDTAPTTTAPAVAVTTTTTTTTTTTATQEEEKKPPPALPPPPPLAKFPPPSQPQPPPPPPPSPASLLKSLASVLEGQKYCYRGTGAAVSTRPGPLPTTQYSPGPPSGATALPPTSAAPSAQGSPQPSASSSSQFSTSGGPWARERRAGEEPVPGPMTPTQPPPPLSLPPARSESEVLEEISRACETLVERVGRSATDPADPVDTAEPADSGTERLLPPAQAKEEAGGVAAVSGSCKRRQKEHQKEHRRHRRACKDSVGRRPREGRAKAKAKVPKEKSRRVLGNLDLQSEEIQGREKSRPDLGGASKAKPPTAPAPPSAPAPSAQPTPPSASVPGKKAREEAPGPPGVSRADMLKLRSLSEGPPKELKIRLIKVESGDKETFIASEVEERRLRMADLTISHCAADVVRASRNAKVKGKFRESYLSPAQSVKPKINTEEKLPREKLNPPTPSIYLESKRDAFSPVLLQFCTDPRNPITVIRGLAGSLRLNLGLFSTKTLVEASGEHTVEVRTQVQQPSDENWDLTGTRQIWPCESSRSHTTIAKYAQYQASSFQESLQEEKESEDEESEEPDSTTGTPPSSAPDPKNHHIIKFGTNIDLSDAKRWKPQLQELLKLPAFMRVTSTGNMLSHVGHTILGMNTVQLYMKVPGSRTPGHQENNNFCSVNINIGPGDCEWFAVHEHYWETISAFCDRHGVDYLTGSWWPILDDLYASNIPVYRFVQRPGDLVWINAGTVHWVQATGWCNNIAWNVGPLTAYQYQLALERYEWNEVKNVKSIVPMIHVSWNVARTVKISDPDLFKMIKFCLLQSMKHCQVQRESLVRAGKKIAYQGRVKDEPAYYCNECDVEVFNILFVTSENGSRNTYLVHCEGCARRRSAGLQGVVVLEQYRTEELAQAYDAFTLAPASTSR

binding: binds
B1: DDX21 (enzyme, UniProt Q9NR30 1-783)
chain: MPGKLRSDAGLESDTAMKKGETLRKQTEEKEKKEKPKSDKTEEIAEEEETVFPKAKQVKKKAEPSEVDMNSPKSKKAKKKEEPSQNDISPKTKSLRKKKEPIEKKVVSSKTKKVTKNEEPSEEEIDAPKPKKMKKEKEMNGETREKSPKLKNGFPHPEPDCNPSEAASEESNSEIEQEIPVEQKEGAFSNFPISEETIKLLKGRGVTFLFPIQAKTFHHVYSGKDLIAQARTGTGKTFSFAIPLIEKLHGELQDRKRGRAPQVLVLAPTRELANQVSKDFSDITKKLSVACFYGGTPYGGQFERMRNGIDILVGTPGRIKDHIQNGKLDLTKLKHVVLDEVDQMLDMGFADQVEEILSVAYKKDSEDNPQTLLFSATCPHWVFNVAKKYMKSTYEQVDLIGKKTQKTAITVEHLAIKCHWTQRAAVIGDVIRVYSGHQGRTIIFCETKKEAQELSQNSAIKQDAQSLHGDIPQKQREITLKGFRNGSFGVLVATNVAARGLDIPEVDLVIQSSPPKDVESYIHRSGRTGRAGRTGVCICFYQHKEEYQLVQVEQKAGIKFKRIGVPSATEIIKASSKDAIRLLDSVPPTAISHFKQSAEKLIEEKGAVEALAAALAHISGATSVDQRSLINSNVGFVTMILQCSIEMPNISYAWKELKEQLGEEIDSKVKGMVFLKGKLGVCFDVPTASVTEIQEKWHDSRRWQLSVATEQPELEGPREGYGGFRGQREGSRGFRGQRDGNRRFRGQREGSRGPRGQRSGGGNKSNRSQNKGQKRSFSKAFGQ
